Measured values taken from the supplement of paper PMC10849652.
This is one part of the list.

Amino acid sequences for entries named in this document (tags omitted). A change or cut given only in a name is not applied to a line headed by its entry.
UniProt C9J406: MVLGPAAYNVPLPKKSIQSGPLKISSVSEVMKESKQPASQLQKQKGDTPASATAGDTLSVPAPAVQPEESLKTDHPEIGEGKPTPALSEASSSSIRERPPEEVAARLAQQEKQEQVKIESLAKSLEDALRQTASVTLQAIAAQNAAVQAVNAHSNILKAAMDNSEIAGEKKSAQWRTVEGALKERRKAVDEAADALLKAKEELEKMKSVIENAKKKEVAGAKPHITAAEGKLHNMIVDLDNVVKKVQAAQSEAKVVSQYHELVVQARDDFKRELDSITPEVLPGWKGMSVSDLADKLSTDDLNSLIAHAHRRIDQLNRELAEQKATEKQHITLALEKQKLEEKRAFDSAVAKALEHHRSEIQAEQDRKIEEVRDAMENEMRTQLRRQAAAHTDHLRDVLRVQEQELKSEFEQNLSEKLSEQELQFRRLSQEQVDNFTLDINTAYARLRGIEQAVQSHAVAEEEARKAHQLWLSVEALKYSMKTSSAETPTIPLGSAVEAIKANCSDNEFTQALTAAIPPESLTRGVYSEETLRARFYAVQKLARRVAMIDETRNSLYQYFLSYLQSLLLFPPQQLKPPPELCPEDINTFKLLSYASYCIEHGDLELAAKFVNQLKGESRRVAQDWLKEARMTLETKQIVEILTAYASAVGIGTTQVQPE
UniProt P29218: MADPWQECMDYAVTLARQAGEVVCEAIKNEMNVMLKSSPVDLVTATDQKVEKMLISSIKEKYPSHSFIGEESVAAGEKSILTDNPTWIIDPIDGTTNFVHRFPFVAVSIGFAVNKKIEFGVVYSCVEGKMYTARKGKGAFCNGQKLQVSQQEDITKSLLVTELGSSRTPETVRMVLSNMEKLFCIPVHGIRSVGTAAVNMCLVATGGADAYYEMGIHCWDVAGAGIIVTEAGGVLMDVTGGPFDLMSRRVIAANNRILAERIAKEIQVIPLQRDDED
UniProt Q9NZI8, whole entry, looked up: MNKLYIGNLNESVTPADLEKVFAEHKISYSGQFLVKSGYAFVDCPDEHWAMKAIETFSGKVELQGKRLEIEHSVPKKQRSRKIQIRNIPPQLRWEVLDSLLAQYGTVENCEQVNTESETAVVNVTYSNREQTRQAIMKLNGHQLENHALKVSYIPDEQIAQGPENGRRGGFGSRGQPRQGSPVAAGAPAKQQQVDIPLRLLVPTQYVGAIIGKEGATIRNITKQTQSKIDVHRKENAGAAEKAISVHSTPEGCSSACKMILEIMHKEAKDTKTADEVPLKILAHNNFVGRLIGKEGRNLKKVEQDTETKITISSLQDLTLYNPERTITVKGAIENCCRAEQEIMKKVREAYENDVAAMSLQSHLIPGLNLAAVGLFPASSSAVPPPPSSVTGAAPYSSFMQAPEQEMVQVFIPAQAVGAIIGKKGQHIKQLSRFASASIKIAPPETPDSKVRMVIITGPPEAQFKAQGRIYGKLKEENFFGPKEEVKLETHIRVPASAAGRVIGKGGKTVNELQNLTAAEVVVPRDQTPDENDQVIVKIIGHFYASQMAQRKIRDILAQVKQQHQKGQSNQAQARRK
UniProt Q5T440: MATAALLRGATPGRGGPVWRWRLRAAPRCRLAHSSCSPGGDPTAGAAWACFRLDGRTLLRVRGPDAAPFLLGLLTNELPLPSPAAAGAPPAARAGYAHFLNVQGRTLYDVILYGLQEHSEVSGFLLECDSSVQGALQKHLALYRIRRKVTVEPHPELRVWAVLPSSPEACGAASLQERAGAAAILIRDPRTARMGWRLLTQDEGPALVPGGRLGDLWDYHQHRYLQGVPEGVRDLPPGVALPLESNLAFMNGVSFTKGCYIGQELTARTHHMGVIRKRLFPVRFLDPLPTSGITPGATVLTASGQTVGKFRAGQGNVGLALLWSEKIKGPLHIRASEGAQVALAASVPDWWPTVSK
UniProt Q8N201, whole entry, looked up: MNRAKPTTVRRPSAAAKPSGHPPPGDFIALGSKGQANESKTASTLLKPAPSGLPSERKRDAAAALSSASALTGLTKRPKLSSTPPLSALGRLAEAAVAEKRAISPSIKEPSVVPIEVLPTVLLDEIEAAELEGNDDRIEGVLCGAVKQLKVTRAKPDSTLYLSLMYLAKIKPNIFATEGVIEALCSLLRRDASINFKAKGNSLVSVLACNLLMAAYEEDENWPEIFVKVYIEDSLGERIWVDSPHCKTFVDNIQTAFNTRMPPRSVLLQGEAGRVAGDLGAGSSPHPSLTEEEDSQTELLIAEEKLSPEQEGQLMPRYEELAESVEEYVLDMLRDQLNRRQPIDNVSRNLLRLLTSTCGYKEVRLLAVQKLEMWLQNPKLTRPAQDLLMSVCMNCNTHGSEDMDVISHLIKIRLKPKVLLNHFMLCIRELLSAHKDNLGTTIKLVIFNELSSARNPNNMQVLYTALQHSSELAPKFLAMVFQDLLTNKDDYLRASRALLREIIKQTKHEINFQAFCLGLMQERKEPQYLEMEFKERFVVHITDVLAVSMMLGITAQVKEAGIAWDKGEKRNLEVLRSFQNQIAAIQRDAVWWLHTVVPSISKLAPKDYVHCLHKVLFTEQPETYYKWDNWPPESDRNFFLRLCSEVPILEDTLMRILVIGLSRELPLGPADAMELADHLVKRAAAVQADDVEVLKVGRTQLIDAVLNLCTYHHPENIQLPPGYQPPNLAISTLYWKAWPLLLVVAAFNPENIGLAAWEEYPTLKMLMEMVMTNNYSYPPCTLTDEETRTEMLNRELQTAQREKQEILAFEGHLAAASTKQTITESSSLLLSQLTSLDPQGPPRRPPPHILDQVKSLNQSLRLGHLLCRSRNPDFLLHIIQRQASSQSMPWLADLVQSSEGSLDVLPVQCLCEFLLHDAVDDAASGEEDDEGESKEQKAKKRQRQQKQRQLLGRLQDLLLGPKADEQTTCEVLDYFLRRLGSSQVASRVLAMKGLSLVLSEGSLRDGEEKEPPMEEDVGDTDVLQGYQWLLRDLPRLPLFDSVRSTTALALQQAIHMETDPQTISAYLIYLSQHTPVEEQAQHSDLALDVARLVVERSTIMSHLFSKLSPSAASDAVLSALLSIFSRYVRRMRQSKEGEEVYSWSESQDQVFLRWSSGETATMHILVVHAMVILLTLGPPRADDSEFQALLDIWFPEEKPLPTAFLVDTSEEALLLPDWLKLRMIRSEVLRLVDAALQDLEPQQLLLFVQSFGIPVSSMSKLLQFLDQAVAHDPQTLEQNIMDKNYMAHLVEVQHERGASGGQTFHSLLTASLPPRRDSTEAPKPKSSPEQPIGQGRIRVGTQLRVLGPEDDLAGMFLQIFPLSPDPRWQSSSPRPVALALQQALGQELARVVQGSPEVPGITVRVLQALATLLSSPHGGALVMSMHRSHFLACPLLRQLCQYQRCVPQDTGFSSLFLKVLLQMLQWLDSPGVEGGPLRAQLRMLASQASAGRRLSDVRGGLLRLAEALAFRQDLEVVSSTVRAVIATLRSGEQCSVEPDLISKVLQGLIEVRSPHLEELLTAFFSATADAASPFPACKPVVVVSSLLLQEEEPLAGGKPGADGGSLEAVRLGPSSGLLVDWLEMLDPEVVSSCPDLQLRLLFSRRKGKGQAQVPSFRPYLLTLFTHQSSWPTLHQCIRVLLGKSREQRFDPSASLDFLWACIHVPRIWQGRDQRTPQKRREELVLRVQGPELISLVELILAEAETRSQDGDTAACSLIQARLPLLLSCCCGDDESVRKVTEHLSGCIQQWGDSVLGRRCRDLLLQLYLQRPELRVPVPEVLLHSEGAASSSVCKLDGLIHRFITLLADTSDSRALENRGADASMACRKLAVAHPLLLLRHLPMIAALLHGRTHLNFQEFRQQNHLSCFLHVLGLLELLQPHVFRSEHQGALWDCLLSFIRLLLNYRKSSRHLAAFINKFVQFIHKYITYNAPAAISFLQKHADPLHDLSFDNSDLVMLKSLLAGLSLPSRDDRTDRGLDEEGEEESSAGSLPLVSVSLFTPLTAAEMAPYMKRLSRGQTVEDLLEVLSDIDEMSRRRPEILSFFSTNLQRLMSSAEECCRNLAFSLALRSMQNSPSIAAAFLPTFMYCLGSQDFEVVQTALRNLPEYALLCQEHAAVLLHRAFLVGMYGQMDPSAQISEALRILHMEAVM
UniProt O75054: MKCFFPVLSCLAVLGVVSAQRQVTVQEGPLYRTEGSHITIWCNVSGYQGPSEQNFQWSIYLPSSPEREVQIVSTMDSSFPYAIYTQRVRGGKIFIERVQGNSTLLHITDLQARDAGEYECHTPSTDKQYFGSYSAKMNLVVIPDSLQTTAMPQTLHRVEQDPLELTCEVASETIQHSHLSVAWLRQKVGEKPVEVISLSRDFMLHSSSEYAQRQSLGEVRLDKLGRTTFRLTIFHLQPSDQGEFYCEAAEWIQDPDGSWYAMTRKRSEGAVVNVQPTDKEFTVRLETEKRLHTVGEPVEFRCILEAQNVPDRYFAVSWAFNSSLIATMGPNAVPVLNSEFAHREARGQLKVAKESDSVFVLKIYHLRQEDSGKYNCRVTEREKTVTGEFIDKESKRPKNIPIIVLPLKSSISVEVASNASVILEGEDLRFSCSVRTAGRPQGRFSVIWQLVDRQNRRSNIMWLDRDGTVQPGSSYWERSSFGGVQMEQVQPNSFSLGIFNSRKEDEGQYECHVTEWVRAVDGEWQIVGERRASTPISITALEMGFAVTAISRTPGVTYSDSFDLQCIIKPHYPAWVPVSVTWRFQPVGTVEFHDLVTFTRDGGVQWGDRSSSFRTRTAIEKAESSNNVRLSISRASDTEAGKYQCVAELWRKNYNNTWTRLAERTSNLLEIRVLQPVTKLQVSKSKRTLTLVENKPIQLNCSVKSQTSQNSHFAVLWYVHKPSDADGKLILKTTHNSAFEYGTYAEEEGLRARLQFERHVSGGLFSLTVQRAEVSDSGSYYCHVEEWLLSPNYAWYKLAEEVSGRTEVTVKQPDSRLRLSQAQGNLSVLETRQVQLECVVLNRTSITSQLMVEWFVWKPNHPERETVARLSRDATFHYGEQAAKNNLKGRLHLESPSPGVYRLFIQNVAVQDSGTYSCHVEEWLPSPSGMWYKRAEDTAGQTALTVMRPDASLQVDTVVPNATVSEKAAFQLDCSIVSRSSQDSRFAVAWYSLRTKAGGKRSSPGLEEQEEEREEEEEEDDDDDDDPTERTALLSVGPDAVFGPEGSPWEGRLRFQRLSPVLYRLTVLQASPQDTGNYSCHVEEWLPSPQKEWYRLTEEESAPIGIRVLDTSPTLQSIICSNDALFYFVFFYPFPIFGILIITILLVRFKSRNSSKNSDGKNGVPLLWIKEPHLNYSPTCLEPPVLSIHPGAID
UniProt Q12905: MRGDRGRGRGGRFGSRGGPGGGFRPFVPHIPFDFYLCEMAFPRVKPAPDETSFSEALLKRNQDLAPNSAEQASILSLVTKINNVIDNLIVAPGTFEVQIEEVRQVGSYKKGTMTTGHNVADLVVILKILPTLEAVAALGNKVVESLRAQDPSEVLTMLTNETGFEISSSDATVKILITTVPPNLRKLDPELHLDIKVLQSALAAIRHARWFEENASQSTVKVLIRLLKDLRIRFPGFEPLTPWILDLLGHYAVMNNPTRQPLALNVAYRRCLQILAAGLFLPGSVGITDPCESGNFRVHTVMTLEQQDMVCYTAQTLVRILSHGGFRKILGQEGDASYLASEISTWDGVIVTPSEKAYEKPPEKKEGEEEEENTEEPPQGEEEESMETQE
UniProt Q9NXR8, whole entry, looked up: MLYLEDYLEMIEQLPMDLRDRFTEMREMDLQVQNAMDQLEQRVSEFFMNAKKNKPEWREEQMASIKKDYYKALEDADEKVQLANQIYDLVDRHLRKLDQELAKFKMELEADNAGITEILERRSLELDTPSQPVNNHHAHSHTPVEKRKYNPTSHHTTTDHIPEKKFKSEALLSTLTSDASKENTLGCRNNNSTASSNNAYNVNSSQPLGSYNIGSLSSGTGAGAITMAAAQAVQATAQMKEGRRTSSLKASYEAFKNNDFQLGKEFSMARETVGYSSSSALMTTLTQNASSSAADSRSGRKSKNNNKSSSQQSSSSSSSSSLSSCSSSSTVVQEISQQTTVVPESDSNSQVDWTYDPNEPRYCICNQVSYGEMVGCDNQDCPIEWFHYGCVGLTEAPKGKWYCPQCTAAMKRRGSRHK
UniProt Q13907: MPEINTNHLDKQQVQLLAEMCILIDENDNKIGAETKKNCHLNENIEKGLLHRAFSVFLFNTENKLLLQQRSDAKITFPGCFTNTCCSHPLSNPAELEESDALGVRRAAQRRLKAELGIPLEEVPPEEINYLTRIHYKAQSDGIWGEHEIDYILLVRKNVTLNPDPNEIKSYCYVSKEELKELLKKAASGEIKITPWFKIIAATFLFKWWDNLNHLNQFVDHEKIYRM

Key:
Test in all cases: log2 fold change, soluble protein after heating vs DMSO (PISA); higher = thermal stabilisation; K562 lysate, 10 uM; active = over 0.2 and 3.5 SD of the protein, either way, in both replicates (recomputed)
alvocidib = compound: CN1CC[C@H](c2c(O)cc(O)c3c(=O)cc(-c4ccccc4Cl)oc23)[C@H](O)C1 [alvocidib]
Procedure, shortened: (§1)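 K562 pellets were dounce-homogenised in PBS pH 7.4 with 1 mM MgCl2, and the crude extract at 1 mg/mL protein was treated with 10 μM compound for 30 min. Aliquots were heated for 3 min across 48°C-58°C, pooled, and brought to 0.5% NP-40 at 4°C; soluble protein was the supernatant after 21,000xg for 90 min. Soluble protein was quantified by TMTpro 16plex LC-MS/MS with channel sums equalised, and reported as log2 fold change in thermal stability against DMSO controls, with values from duplicates.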

Tubastatin A = compound: CN1CCc2c(c3ccccc3n2Cc2ccc(C(=O)NO)cc2)C1 [Tubastatin A]
Procedure, shortened: as §1

[1] = compound: CNC(=O)C1=CC=CC=C1NC2=NC(=NC=C2Cl)NC3=C(C=C(C=C3)N4CCOCC4)OC
Procedure, shortened: as §1

defactinib = compound: CNC(=O)c1ccc(Nc2ncc(C(F)(F)F)c(NCc3nccnc3N(C)S(C)(=O)=O)n2)cc1 [defactinib]
Procedure, shortened: as §1

[2] = compound: CNc1nc(-c2ccc3c(N)n[nH]c3c2)cc(N2C[C@@H](C(=O)NC3CCCCC3)CC[C@H]2C)n1
Procedure, shortened: as §1

encorafenib = compound: COC(=O)N[C@@H](C)CNc1nccc(-c2cn(C(C)C)nc2-c2cc(Cl)cc(NS(C)(=O)=O)c2F)n1 [encorafenib]
Procedure, shortened: as §1

[3] = compound: COC(=O)[C@H](CCSC)NC(=O)C1=C(C=C(C=C1)NC[C@H](CS)N)C2=CC=CC=C2
Procedure, shortened: as §1

alisertib = compound: COc1cc(Nc2ncc3c(n2)-c2ccc(Cl)cc2C(c2c(F)cccc2OC)=NC3)ccc1C(=O)O [alisertib]
Procedure, shortened: as §1

[4] = compound: COc1cc2nc(-c3cc(F)ccc3O)nc(N[C@@H]3CNC[C@H]3C(C)(C)O)c2cc1OC
Procedure, shortened: as §1

gefitinib = compound: COc1cc2ncnc(Nc3ccc(F)c(Cl)c3)c2cc1OCCCN1CCOCC1 [gefitinib]
Procedure, shortened: as §1

lapatinib = compound: CS(=O)(=O)CCNCc1ccc(-c2ccc3ncnc(Nc4ccc(OCc5cccc(F)c5)c(Cl)c4)c3c2)o1 [lapatinib]
Procedure, shortened: as §1

pictilisib = compound: CS(=O)(=O)N1CCN(Cc2cc3nc(-c4cccc5[nH]ncc45)nc(N4CCOCC4)c3s2)CC1 [pictilisib]
Procedure, shortened: as §1

crizotinib = compound: C[C@@H](Oc1cc(-c2cnn(C3CCNCC3)c2)cnc1N)c1c(Cl)ccc(F)c1Cl [crizotinib]
Procedure, shortened: as §1

[5] = compound: C[C@H](C1=CC=C(C=C1)C(=O)NC2=C3C=CNC3=NC=C2)N
Procedure, shortened: as §1

duvelisib = compound: C[C@H](Nc1ncnc2nc[nH]c12)c1cc2cccc(Cl)c2c(=O)n1-c1ccccc1 [duvelisib]
Procedure, shortened: as §1

gandotinib = compound: Cc1cc(Nc2cc(CN3CCOCC3)c3nc(C)c(Cc4ccc(Cl)cc4F)n3n2)n[nH]1 [gandotinib]
Procedure, shortened: as §1

tozasertib = compound: Cc1cc(Nc2cc(N3CCN(C)CC3)nc(Sc3ccc(NC(=O)C4CC4)cc3)n2)n[nH]1 [tozasertib]
Procedure, shortened: as §1

doramapimod = compound: Cc1ccc(-n2nc(C(C)(C)C)cc2NC(=O)Nc2ccc(OCCN3CCOCC3)c3ccccc23)cc1 [doramapimod]
Procedure, shortened: as §1

bafetinib = compound: Cc1ccc(NC(=O)c2ccc(CN3CC[C@H](N(C)C)C3)c(C(F)(F)F)c2)cc1Nc1nccc(-c2cncnc2)n1 [bafetinib]
Procedure, shortened: as §1

[6] = compound: Cc1cccc(CC(=O)N2CCc3c2ccc(-c2cn(C)c4ncnc(N)c24)c3F)n1
Procedure, shortened: as §1

Target | log2 fold change (alvocidib) | log2 fold change (Tubastatin A) | log2 fold change [1] | log2 fold change (defactinib) | log2 fold change [2] | log2 fold change (encorafenib) | log2 fold change [3] | log2 fold change (alisertib) | log2 fold change [4] | log2 fold change (gefitinib) | log2 fold change (lapatinib) | log2 fold change (pictilisib) | log2 fold change (crizotinib) | log2 fold change [5] | log2 fold change (duvelisib) | log2 fold change (gandotinib) | log2 fold change (tozasertib) | log2 fold change (doramapimod) | log2 fold change (bafetinib) | log2 fold change [6]
ILK (UniProt Q13418) | inactive: 0.002 | inactive: -0.084 | inactive: -0.002 | inactive: -0.026 | inactive: -0.061 | inactive: -0.032 | inactive: 0.038 | inactive: 0.007 | inactive: -0.04 | inactive: 0.013 | inactive: 0.01 | inactive: -0.005 | inactive: -0.038 | inactive: 0.01 | inactive: -0.036 | inactive: -0.015 | inactive: 0.005 | inactive: 0.004 | inactive: -0.002 | inactive: 0.007
IMPACT (UniProt Q9P2X3) | inactive: 0.002 | inactive: -0.04 | inactive: -0.006 | inactive: 0.013 | inactive: -0.05 | inactive: 0.063 | inactive: -0.083 | inactive: -0.024 | inactive: -0.044 | inactive: 0.167 | inactive: 0.012 | inactive: 0.044 | inactive: 0.083 | inactive: 0.077 | inactive: -0.015 | inactive: 0.065 | inactive: 0.026 | inactive: -0.044 | inactive: -0.098 | inactive: -0.096
IMMT (UniProt C9J406) | inactive: -0.027 | inactive: -0.076 | inactive: -0.162 | inactive: 0.075 | inactive: 0.008 | inactive: -0.085 | inactive: -0.166 | inactive: -0.031 | inactive: -0.073 | inactive: -0.052 | inactive: 0.017 | inactive: 0.082 | inactive: -0.116 | active: -0.461 | inactive: 0.003 | inactive: 0.048 | inactive: 0.015 | inactive: -0.034 | inactive: 0.03 | inactive: 0.168
IMPA1 isoform 3 (UniProt P29218) | inactive: 0.023 | inactive: 0.031 | inactive: -0.011 | inactive: -0.003 | inactive: -0.001 | inactive: -0.015 | inactive: -0.039 | inactive: -0.009 | inactive: 0.017 | inactive: 0.021 | inactive: -0.011 | inactive: -0.021 | inactive: 0.006 | inactive: 0.033 | inactive: 0.048 | inactive: -0.041 | inactive: -0.007 | inactive: 0.035 | inactive: 0.051 | inactive: -0.07
IGF2BP1 (UniProt Q9NZI8) | inactive: 0.001 | inactive: -0.148 | inactive: 0.005 | inactive: 0.009 | inactive: -0.027 | inactive: -0.003 | inactive: 0.195 | inactive: 0.012 | inactive: -0.008 | inactive: -0.015 | inactive: -0.013 | inactive: -0.015 | inactive: -0.031 | inactive: -0.074 | inactive: -0.004 | inactive: -0.071 | inactive: 0.009 | inactive: -0.014 | inactive: -0.03 | inactive: 0.067
IFNGR1 (UniProt P15260) | inactive: -0.348 | inactive: 0.157 | inactive: -0.022 | inactive: -0.164 | inactive: 0.272 | inactive: -0.018 | inactive: -0.002 | inactive: 0.138 | inactive: 0.106 | inactive: -0.036 | inactive: -0.076 | inactive: 0.153 | inactive: -0.008 | inactive: -0.497 | inactive: 0.196 | inactive: 0.263 | inactive: -0.001 | inactive: -0.034 | inactive: -0.144 | inactive: 0.378
IBA57 (UniProt Q5T440) | inactive: -0.036 | inactive: 0.019 | inactive: -0.012 | inactive: -0.018 | inactive: -0.055 | inactive: -0.01 | inactive: 0.004 | inactive: 0.019 | inactive: -0.014 | inactive: 0.005 | inactive: -0.03 | inactive: -0.074 | inactive: 0.072 | inactive: -0.027 | inactive: 0.027 | inactive: -0.009 | inactive: 0.016 | inactive: -0.014 | inactive: -0.016 | inactive: 0.003
INTS1 (UniProt Q8N201) | inactive: 0.009 | inactive: -0.028 | inactive: 0.013 | inactive: 0.019 | inactive: 0.004 | inactive: 0.028 | inactive: -0.018 | inactive: 0.021 | inactive: 0.007 | inactive: -0.04 | inactive: -0.051 | inactive: -0.011 | inactive: -0.067 | inactive: 0.05 | inactive: -0.04 | inactive: -0.136 | inactive: 0.007 | inactive: -0.001 | inactive: -0.164 | inactive: 0.031
IGSF3 (UniProt O75054) | inactive: -0.024 | inactive: -0.013 | inactive: 0.02 | inactive: 0.045 | inactive: 0.039 | inactive: 0.005 | inactive: -0.061 | inactive: -0.024 | inactive: 0.007 | inactive: 0.065 | inactive: 0.017 | inactive: -0.027 | inactive: 0.02 | inactive: -0.031 | inactive: 0.001 | inactive: 0.049 | inactive: -0.039 | inactive: -0.018 | inactive: 0.114 | inactive: 0.041
ILF2 (UniProt Q12905) | inactive: 0.026 | inactive: -0.001 | inactive: -0.004 | inactive: -0.013 | inactive: 0.044 | inactive: 0.017 | inactive: -0.028 | inactive: 0.015 | inactive: 0.014 | inactive: -0.007 | inactive: -0.02 | inactive: -0.008 | inactive: 0.001 | inactive: 0.041 | inactive: 0.013 | inactive: -0.014 | inactive: -0.008 | inactive: -0.021 | inactive: -0.008 | inactive: -0.028
ING3 (UniProt Q9NXR8) | inactive: 0.04 | inactive: -0.016 | inactive: 0.019 | inactive: 0.035 | inactive: 0.052 | inactive: 0.12 | inactive: 0.046 | inactive: -0.072 | inactive: 0.032 | inactive: -0.004 | inactive: -0.061 | inactive: -0.024 | inactive: -0.032 | inactive: 0.003 | inactive: 0.09 | inactive: -0.037 | inactive: 0.022 | inactive: -0.029 | inactive: -0.091 | inactive: -0.014
IDI1 (UniProt Q13907) | inactive: -0.012 | inactive: 0.035 | inactive: -0.016 | inactive: -0.001 | inactive: 0.004 | inactive: -0.011 | inactive: -0.025 | inactive: -0.003 | inactive: 0.026 | inactive: -0.058 | inactive: 0.042 | inactive: -0.029 | inactive: 0 | inactive: -0.149 | inactive: 0.036 | inactive: 0.059 | inactive: -0.003 | inactive: 0.081 | inactive: -0.016 | inactive: 0
INPP4A (UniProt Q96PE3) | inactive: -0.032 | inactive: -0.051 | inactive: 0.033 | inactive: 0.046 | inactive: 0.009 | inactive: 0.01 | inactive: -0.019 | inactive: -0.026 | inactive: 0.01 | inactive: -0.033 | inactive: -0.028 | inactive: -0.116 | inactive: -0.024 | inactive: -0.086 | inactive: 0.025 | inactive: 0.003 | inactive: 0.065 | inactive: 0.014 | inactive: 0.132 | inactive: 0.128
INPP1 (UniProt P49441) | inactive: -0.004 | inactive: -0.031 | inactive: -0.003 | inactive: 0.021 | inactive: -0.068 | inactive: -0.014 | inactive: -0.022 | inactive: 0.035 | inactive: -0.018 | inactive: 0.105 | inactive: -0.01 | inactive: -0.044 | inactive: -0.012 | inactive: -0.013 | inactive: 0.009 | inactive: -0.123 | inactive: 0.054 | inactive: -0.011 | inactive: -0.011 | inactive: -0.025
IMPAD1 (UniProt Q9NX62) | inactive: 0.013 | inactive: 0.022 | inactive: 0.043 | inactive: -0.016 | inactive: -0.006 | inactive: 0.005 | inactive: -0.023 | inactive: 0.009 | inactive: -0.001 | inactive: 0.085 | inactive: -0.036 | inactive: 0.02 | inactive: -0.005 | inactive: -0.023 | inactive: 0 | inactive: 0.027 | inactive: -0.007 | inactive: -0.003 | inactive: -0.02 | inactive: -0.026

Record cards, as listed above. Order of values: log2 fold change (alvocidib) | log2 fold change (Tubastatin A) | log2 fold change [1] | log2 fold change (defactinib) | log2 fold change [2] | log2 fold change (encorafenib) | log2 fold change [3] | log2 fold change (alisertib) | log2 fold change [4] | log2 fold change (gefitinib) | log2 fold change (lapatinib) | log2 fold change (pictilisib) | log2 fold change (crizotinib) | log2 fold change [5] | log2 fold change (duvelisib) | log2 fold change (gandotinib) | log2 fold change (tozasertib) | log2 fold change (doramapimod) | log2 fold change (bafetinib) | log2 fold change [6]
INTS1 (UniProt Q8N201) is listed with inactive: 0.009 | inactive: -0.028 | inactive: 0.013 | inactive: 0.019 | inactive: 0.004 | inactive: 0.028 | inactive: -0.018 | inactive: 0.021 | inactive: 0.007 | inactive: -0.04 | inactive: -0.051 | inactive: -0.011 | inactive: -0.067 | inactive: 0.05 | inactive: -0.04 | inactive: -0.136 | inactive: 0.007 | inactive: -0.001 | inactive: -0.164 | inactive: 0.031
IFNGR1 (UniProt P15260) is listed with inactive: -0.348 | inactive: 0.157 | inactive: -0.022 | inactive: -0.164 | inactive: 0.272 | inactive: -0.018 | inactive: -0.002 | inactive: 0.138 | inactive: 0.106 | inactive: -0.036 | inactive: -0.076 | inactive: 0.153 | inactive: -0.008 | inactive: -0.497 | inactive: 0.196 | inactive: 0.263 | inactive: -0.001 | inactive: -0.034 | inactive: -0.144 | inactive: 0.378
